Laboratory results taken from PubChem BioAssay AID1671190 (National Center for Advancing Translational Sciences (NCATS), 2021).
Several values for one entry are separate records, joined by “and”; a condition that tells them apart may be missing. Identical values can stand only once. The campaign covered roughly 580,000 compounds. About 6,100 (1.1%) were called active. Inconclusive results, whose numbers are uncertain, are shown with a selection of clear calls. The call rests on the fitted dose curve; in most records, active means well fitted inhibition curve with a large enough effect; inconclusive means small, poorly fitted or top-dose-only effect, or another doubt; inactive means no such curve, though single readings can be large or run the other way. Potencies of inconclusive entries are doubtful fits and often do not repeat.

By UniProt entry, the sequences of proteins in these tests, tags left out. Where a name states a change or a piece, a line headed by the entry shows the natural chain unless it says otherwise.
UniProt P18054: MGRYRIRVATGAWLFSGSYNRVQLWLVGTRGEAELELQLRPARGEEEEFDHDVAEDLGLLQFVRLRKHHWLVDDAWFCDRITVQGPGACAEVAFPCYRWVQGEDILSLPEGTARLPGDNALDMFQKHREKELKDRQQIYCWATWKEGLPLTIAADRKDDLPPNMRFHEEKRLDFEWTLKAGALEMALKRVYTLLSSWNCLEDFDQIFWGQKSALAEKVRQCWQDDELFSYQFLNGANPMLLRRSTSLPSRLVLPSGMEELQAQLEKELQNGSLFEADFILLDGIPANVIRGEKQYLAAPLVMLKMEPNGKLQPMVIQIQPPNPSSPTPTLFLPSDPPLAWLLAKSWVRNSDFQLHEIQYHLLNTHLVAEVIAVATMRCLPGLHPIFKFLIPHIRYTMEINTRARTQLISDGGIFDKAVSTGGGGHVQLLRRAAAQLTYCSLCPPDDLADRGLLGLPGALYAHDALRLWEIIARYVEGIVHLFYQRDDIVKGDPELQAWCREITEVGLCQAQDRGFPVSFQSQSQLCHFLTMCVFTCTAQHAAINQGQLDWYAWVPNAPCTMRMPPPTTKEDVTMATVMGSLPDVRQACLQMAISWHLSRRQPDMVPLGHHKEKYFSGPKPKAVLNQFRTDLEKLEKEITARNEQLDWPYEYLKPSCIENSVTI

Target: Polyunsaturated fatty acid lipoxygenase ALOX12 (Homo sapiens) (UniProt P18054)
Test: Primary qHTS assay for inhibitors of human arachidonate 12S-lipoxygenase (ALOX12): Round 2
Conditions: purified 12hLO, xylenol orange hydroperoxide absorbance; activity change, negative = inhibition: at 108 µM (top of the series) unless noted
Summary of the method: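 Hydroperoxide product was detected by ferrous iron/xylenol orange as the 573 to 405 nm absorbance ratio. Arachidonic acid at 40 uM (final) was turned over for 30 min at room temperature by 150 nM human 12hLO, pH 7.0 Hepes buffer, after 15 min compound preincubation.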
On the % scale 0 is the no-effect control and ±100 the full control effect; potency means the concentration at half of the fitted maximal effect.

| SMILES | activity change, negative = inhibition | Potency |
| --- | --- | --- |
| O=C(N/N=C/c1ccccc1)c1[nH]c2ccc(Br)cc2c1-c1ccccc1 | inactive: -1.36% |  |
| COc1ccc(OC)c(-c2cc(C(=O)Nc3cccc(Cl)c3)no2)c1 | inactive: 12.2% |  |
| O=C(COC(=O)/C=C/c1ccc([N+](=O)[O-])cc1)NC1CCCCC1 | inactive: 28.6% |  |
| O=C(NC(=S)Nc1ccc(N2CCOCC2)c(Cl)c1)c1sc2ccccc2c1Cl | inactive: -5.42% |  |
| CC(Sc1nc(N)cc(N)n1)C(=O)Nc1ccc(N2CCOCC2)cc1 (configuration not stated) | inactive: 3.12% |  |
| COc1cc2c(cc1OC)CN(CC(=O)Nc1ccc(C)cc1)CC2 |  | inconclusive: 31.6 µM [inhibitor, single point] |
| Cc1ccc(C(=O)NCCN2CCC(n3c(=O)[nH]c4ccccc43)CC2)cc1 |  | inconclusive: 44.7 µM [inhibitor, partial curve, poor fit] |
| CC(=O)N1CCc2cc(S(=O)(=O)NCCC(=O)Nc3cccc(C)c3)ccc21 | inactive: -1.03% |  |
| O=C(CN1CCN(C/C=C/c2ccccc2)CC1)NCc1ccccc1 | inactive: -4.66% |  |
| CN(Cc1ccccc1)c1nc2c(c(=O)[nH]c(=O)n2C)n1CCCc1ccccc1 |  | inconclusive: 100 µM [inhibitor, single point] |
| N#CCOc1ccc2[nH]cc(C(C(=O)O)N3CCN(Cc4ccncc4)CC3)c2c1 (configuration not stated) | inactive: 4.51% |  |
| O=C(O)c1cc(Br)ccc1NS(=O)(=O)c1cccc2nsnc12 |  | inconclusive: 25.1 µM [inhibitor, single point] |
| Cc1cccc(C)c1Nc1c(-c2ccccn2)nc2ccccn12 |  | inconclusive: 56.2 µM [inhibitor, single point] |
| CC(=O)Nc1ccc(SCC(=O)Nc2oc(C)c3c(C)n[nH]c(=O)c23)cc1 | inactive: -17.1% |  |
| Cc1cc(C(=O)Nc2cc(S(C)(=O)=O)ccc2Cl)c(C)o1 |  | inconclusive: 39.8 µM [inhibitor, partial curve, poor fit] |
| COc1ccc(-c2nn(-c3ccccc3)cc2/C=C2/SC(=S)N(CCC(=O)O)C2=O)cc1 |  | inconclusive: 35.5 µM [inhibitor, partial curve] |
| COc1cccc(C2c3cc4c(cc3OC(N3CCOCC3)C2C)OCO4)c1O (configuration not stated) |  | active: 31.6 µM |
| Cn1nnnc1SCc1csc(Nc2ccccc2)n1 |  | inconclusive: 25.1 µM [inhibitor, partial curve, poor fit] |
| CC(=O)C(Sc1ccc2nnc(-c3ccc(F)cc3)n2n1)C(C)=O |  | inconclusive: 8.91 µM [inhibitor, full curve, poor fit] |
| CCONC(=O)C(C)Sc1cc(Cl)ccc1Cl (configuration not stated) | inactive: -38.3% |  |
| CC(=O)Nc1cnc(-c2ccc3c(c2)OCO3)cn1 |  | inconclusive: 70.8 µM [inhibitor, partial curve, poor fit] |
| COc1ccc(OCc2nc(C#N)c(NCCN3CCOCC3)o2)cc1 | inactive: 19.2% |  |
| CCc1ccc(C2C(C(=O)OC)C(=O)CC(C)(O)C2C(=O)OC)cc1 (configuration not stated) |  | inconclusive: 39.8 µM [inhibitor, partial curve, poor fit] |

| SMILES | activity change, negative = inhibition | Potency |
| --- | --- | --- |
| Cc1cc(NC(=O)Nc2ccccc2)n(-c2ccccc2)n1 |  | inconclusive: 0.891 µM [inhibitor, full curve, poor fit] |
| COc1ccc(-c2cc(C(=O)NC3CCCC3)c3ccccc3n2)cc1 |  | inconclusive: 56.2 µM [inhibitor, partial curve, poor fit] and inconclusive: 39.8 µM [inhibitor, partial curve, poor fit] |
| Cc1ccc(SCC(=O)NC(=O)NCc2ccco2)c(C)c1 |  | inconclusive: 79.4 µM [inhibitor, partial curve, poor fit] |
| COc1ccc(CNC(=O)COC(=O)c2cccc(S(=O)(=O)N3CCOCC3)c2)cc1 |  | inconclusive: 31.6 µM [inhibitor, single point] |
| CCOc1ccccc1N1CN(C2CCCCC2)CNC1=S |  | inconclusive: 112 µM [inhibitor, single point] |
| CCc1ccc(-c2nc(-c3nc(-c4ccccc4)cs3)sc2C)cc1 | inactive: 30.1% |  |
| Cc1[nH]c2ccccc2c1-c1csc(NC(=O)C2CC2)n1 |  | inconclusive: 35.5 µM [inhibitor, partial curve, poor fit] |
| CC1=C/C(=C(\c2cc(C)c(O)c(Br)c2)c2ccccc2S(=O)(=O)O)C=C(Br)C1=O |  | inconclusive: 44.7 µM [inhibitor, partial curve] |
| Cc1nn(-c2cccc(Br)c2)c(C)c1[C@@H]1C=C[C@@H](NS(C)(=O)=O)C1 |  | active: 11.2 µM |
| N#Cc1c(-c2ccc(F)cc2)c2c([nH]c1=O)-c1ccccc1OC2 |  | inconclusive: 31.6 µM [inhibitor, single point] |
| CNC(=O)c1ccc(-c2sc3nc(N4CCOCC4)c4c(c3c2N)CC(C)(C)OC4)o1 | inactive: 0% |  |
| Clc1cc(Br)ccc1OCCCNCc1ccccc1 |  | inconclusive: 14.1 µM [inhibitor, partial curve, poor fit] |
| COc1ccc(CNC(=O)CSCc2ccc(C)cc2)c(OC)c1 |  | inconclusive: 56.2 µM [inhibitor, partial curve, poor fit] |
| CC(C)NC(=O)N(C)C[C@H]1Oc2ccc(NS(=O)(=O)c3ccc(Cl)cc3)cc2CC(=O)N([C@@H](C)CO)C[C@@H]1C |  | inconclusive: 50.1 µM [inhibitor, partial curve, poor fit] |
| O=C(c1ccc2c(c1)N(Cc1cccc(Cl)c1)C(=O)c1ccccc1S2(=O)=O)N1CCN(Cc2ccccc2)CC1 |  | inconclusive: 126 µM [inhibitor, partial curve, poor fit] |
| Cn1cccc1/C=N/N1CCN(Cc2ccccc2)CC1 |  | inconclusive: 100 µM [inhibitor, single point] |
| Cc1ccc(NS(=O)(=O)c2ccc(-c3cc(C)no3)cc2)c(C)c1 | inconclusive: -33.5% [inhibitor] |  |
| O=C(Cn1ncc2c3ccccc3n(Cc3cccc(Cl)c3)c2c1=O)NCc1ccccn1 |  | inconclusive: 44.7 µM [inhibitor, partial curve, poor fit] |
| COc1ccc(C(=O)N(C)Cc2cc(Br)ccc2OC)cc1F |  | inconclusive: 89.1 µM [inhibitor, single point] |
| Cc1ccc(CN2CCN(Cc3c[nH]c4ccccc34)CC2CCO)o1 (configuration not stated) | inactive: -2.29% |  |
| Cc1cc(Br)ccc1NC(=O)CN1C(=S)NC(C)(C)CC1C (configuration not stated) |  | inconclusive: 70.8 µM [inhibitor, single point] |
| C=CCN1C[C@H](COC(=O)c2cccc(C)c2)Oc2cccc(F)c2S1(=O)=O |  | inconclusive: 112 µM [inhibitor, single point] |
| O=C(CSc1nc2ccccc2s1)NNC(=S)Nc1ccccc1 |  | inconclusive: 50.1 µM [inhibitor, partial curve, poor fit] |

| SMILES | activity change, negative = inhibition | Potency |
| --- | --- | --- |
| Oc1ccc(/C=C/c2cc(-c3ccccc3)cc(-c3ccccc3)[o+]2)cc1 |  | inconclusive: 5.62 µM [inhibitor, full curve, poor fit] |
| CCCCCCc1nc2ccccc2c(=O)n1NC(=O)c1c(O)c2c(n(CC(C)C)c1=O)CCCC2 | inactive: -16.1% |  |
| Cc1ccc(CNC(=O)c2ccc3c(c2)NC(=O)CS3)cc1 |  | inconclusive: 112 µM [inhibitor, partial curve, poor fit] |
| COC(=O)c1ccc(CN(C)CC2CC2)cc1 | inactive: 19.8% |  |
| COCCn1c(SCC(=O)Nc2cc(C)on2)nc2c(c1=O)SC(C)C2 (configuration not stated) |  | inconclusive: 2.82 µM [inhibitor, full curve, poor fit] |
| CCN(Cc1ccc(Br)s1)C(=O)CCl |  | inconclusive: 44.7 µM [inhibitor, partial curve, poor fit] |
| COc1ccc(C(CNC(=O)COc2cc(C)ccc2Cl)N2CCCCC2)cc1 (configuration not stated) |  | inconclusive: 50.1 µM [inhibitor, partial curve, poor fit] |
| NC(=O)c1ccc2c(=O)n3c(-c4cccs4)csc3nc2c1 |  | inconclusive: 22.4 µM [inhibitor, partial curve, poor fit] |
| CC(OC(=O)c1cccc(-n2cnnn2)c1)C(=O)Nc1ccc(N2CCOCC2)cc1 (configuration not stated) |  | inconclusive: 79.4 µM [inhibitor, single point] |
| O=S1(=O)CC(N2CCN(CCO)CC2)CN1Cc1cn(Cc2cccc(Cl)c2)nn1 (configuration not stated) |  | active: 7.08 µM |
| O=C([C@@H]1C[C@H](F)CN1C(=O)c1ccccc1F)N1CCCCC1 | inactive: 23.1% |  |
| CN1CCC(OCCCn2ccnc2-c2ccccc2C(=O)O)CC1 |  | inconclusive: 28.2 µM [inhibitor, single point] |
| COc1cc(CNC(=O)C2CC2)ccc1OCc1ccccc1 | inactive: 1.07% |  |
| CC(=O)N1CCN(c2cc(-c3noc([C@@H]4CCCN4Cc4ccc(CO)o4)n3)ccn2)CC1 |  | inconclusive: 56.2 µM [inhibitor, partial curve, poor fit] |
| Cc1nnc(SCc2cccc3ccccc23)s1 |  | inconclusive: 126 µM [inhibitor, single point] |
| Cc1ccc(C(=O)Cn2c(C(=O)/C=C/c3ccccc3)nc3ccccc32)cc1 | inactive: -6.31% |  |
| CCOc1ccccc1CN1CCC(C)(c2noc(C3CCOCC3)n2)CC1 | inactive: 35.1% |  |
| c1coc(CNc2ncnc3nc[nH]c23)c1 |  | inconclusive: 54.4 µM [inhibitor, single point] |
| Cc1nc(-c2cccc(Cl)c2)n(CC(=O)NCc2ccc(F)cc2)c(=O)c1CCO |  | inconclusive: 44.7 µM [inhibitor, partial curve, poor fit] |
| Cc1cc(Sc2ccc(NC(=O)c3cccc(Cl)c3)cc2)c2ccccc2n1 |  | inconclusive: 126 µM [inhibitor, partial curve, poor fit] |
| Cc1cccc(N2C(=O)CN(Cc3ccccc3)C2=S)c1 |  | inconclusive: 89.1 µM [inhibitor, single point] |
